From PubChem BioAssay AID328 (DTP/NCI, 2004) come the findings set out here.

The assay has as its system BDF1 mice, P388 leukemia ip, median survival T/C. In words: NCI In Vivo Anticancer Drug Screen. Data for tumor model P388 Leukemia (intraperitoneal) in B6D2F1 (BDF1) mice. To be noted: higher T/C = longer survival. The essentials: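 Read-out is survival of treated animals expressed relative to the vehicle group, as a T/C ratio.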
Where [1] appears, read: T/C endpoint: median survival time, dose: 400.0 mg/kg/injection, schedule: Q01DX009 (ip), vehicle: saline with Tween-80.
The mark [2] stands for this setting: T/C endpoint: median survival time, dose: 100.0 mg/kg/injection, schedule: Q01DX009 (ip), vehicle: saline with Tween-80.
Where [3] appears, read: T/C endpoint: median survival time, dose: 200.0 mg/kg/injection, schedule: Q04DX003 (ip), vehicle: saline with Tween-80.
Where [4] appears, read: T/C endpoint: median survival time, dose: 400.0 mg/kg/injection, schedule: Q04DX003 (ip), vehicle: saline with Tween-80.
Where [5] appears, read: T/C endpoint: median survival time, dose: 400.0 mg/kg/injection, schedule: Q04DX003 (ip), vehicle: Klucel (hydroxypropylcellulose) (HPC).
Setting [6] is: T/C endpoint: median survival time, dose: 1.0 mg/kg/injection, schedule: Q01DX009 (ip), vehicle: saline with Tween-80.
Setting [7] is: T/C endpoint: median survival time, dose: 100.0 mg/kg/injection, schedule: Q04DX003 (ip), vehicle: saline with Tween-80.

The list shows only some results of the screen, not a fair sample: it gathers tests that were run many times, whatever their T/C, doses with no T/C, and many T/C values between a quarter and a half above the control. Further doses and runs are listed elsewhere. T/C gives the treated animals as a percentage of the vehicle group. Some doses have a count of surviving animals in place of a T/C: the source holds a T/C of zero for them, seemingly a mark for toxic or unscored doses. Some survivor counts are full or nearly so, which does not show that the dose was tolerated: the source hardly ever lists a survival T/C far under the control, and the zero likely stands for such cases as well. Counts of survivors are from the toxicity check (mostly the fifth day) where no day follows; animals may have died later. Schedule codes are those of the source, taken here to give the interval after Q, in days (D) or hours (H), and the number of doses after X. Some entries were tested several times; the values are given in rising order. For survival time, the PubChem record calls one and a half times the control and up active, and a quarter to a half above the control has no call in these data; cut-offs in other NCI protocols can differ. Some T/C values carry the count of animals alive at the toxicity check (mostly the fifth day); without a count, all were alive then.

Take `NC(=O)c1nc(-c2ccccc2)c(-c2ccccc2)[nH]c1=O`: the survivor count under setting [1] is 3 of 6.
Consider `[O-][N+](=Nc1cccc(Cl)c1)c1cccc(Cl)c1`, for which the T/C under setting [2] was 125 % of control.
As for `N#Cc1cnc2nc1NCCCCCCC2`, the survivor count under setting [3] is 5 of 6 and the survivor count under setting [4] was 1 of 6.
As for `CCCCCCCCC(=O)N1CC1`, the survivor count under setting [5] is on record as 2 of 6.
Consider `CC[C@](C)(O)C(=O)O[C@H]1C(=O)O[C@@H]2C[C@H]3C(C)=CC(=O)[C@@H](O)[C@]3(C)[C@H]3[C@@]4(O)OC[C@]32[C@@H]1[C@@H](C)[C@H]4O`, for which the T/C (T/C endpoint: median survival time, dose: 0.13 mg/kg/injection, schedule: Q01DX009 (ip), vehicle: saline + alcohol) was 126 % of control; the T/C (T/C endpoint: median survival time, dose: 0.25 mg/kg/injection, schedule: Q01DX009 (ip), vehicle: saline + alcohol) is 138 % of control; the T/C (T/C endpoint: median survival time, dose: 0.25 mg/kg/injection, schedule: Q01DX009 (ip), vehicle: saline with Tween-80) is 125 % of control; the T/C (T/C endpoint: median survival time, dose: 0.25 mg/kg/injection, schedule: Q01DX010 (ip), vehicle: steroid suspending solution) is 136 % of control; the T/C (T/C endpoint: median survival time, dose: 0.5 mg/kg/injection, schedule: Q01DX009 (ip), vehicle: saline + alcohol) is 135 % of control [5 of 6 alive]; the T/C (T/C endpoint: median survival time, dose: 0.5 mg/kg/injection, schedule: Q01DX009 (ip), vehicle: saline with Tween-80) is 135 % of control [5 of 6 alive]. In addition, the T/C under setting [6] was 135 % of control [5 of 6 alive]. Moreover, the survivor count (T/C endpoint: median survival time, dose: 0.5 mg/kg/injection, schedule: Q01DX010 (ip), vehicle: steroid suspending solution) is reported as 2 of 4; the survivor count (T/C endpoint: median survival time, dose: 0.8 mg/kg/injection, schedule: Q01DX009 (ip), vehicle: saline with Tween-80) was 1 of 6; the survivor count under setting [6] is 3 of 6; the survivor count (T/C endpoint: median survival time, dose: 1.0 mg/kg/injection, schedule: Q01DX009 (ip), vehicle: saline) is listed as 1 of 6; the survivor count (T/C endpoint: median survival time, dose: 1.0 mg/kg/injection, schedule: Q01DX010 (ip), vehicle: other) is reported as 2 of 4; the survivor count (T/C endpoint: median survival time, dose: 1.0 mg/kg/injection, schedule: Q01DX010 (ip), vehicle: saline) is 3 of 6. Besides, the survivor count (T/C endpoint: median survival time, dose: 1.0 mg/kg/injection, schedule: Q01DX010 (ip), vehicle: steroid suspending solution) was 1 of 4 and 2 of 4; the survivor count (T/C endpoint: median survival time, dose: 2.0 mg/kg/injection, schedule: Q01DX009 (ip), vehicle: saline + alcohol) was 1 of 6; the survivor count (T/C endpoint: median survival time, dose: 2.0 mg/kg/injection, schedule: Q01DX009 (ip), vehicle: saline) is 1 of 6; the survivor count (T/C endpoint: median survival time, dose: 2.0 mg/kg/injection, schedule: Q01DX010 (ip), vehicle: other) is recorded as 0 of 4; the survivor count (T/C endpoint: median survival time, dose: 2.0 mg/kg/injection, schedule: Q01DX010 (ip), vehicle: steroid suspending solution) was 0 of 4; the survivor count (T/C endpoint: median survival time, dose: 4.0 mg/kg/injection, schedule: Q01DX009 (ip), vehicle: saline + alcohol) is on record as 0 of 6. The survivor count (T/C endpoint: median survival time, dose: 4.0 mg/kg/injection, schedule: Q01DX010 (ip), vehicle: other) is listed as 0 of 4; the survivor count (T/C endpoint: median survival time, dose: 4.0 mg/kg/injection, schedule: Q01DX010 (ip), vehicle: steroid suspending solution) is 0 of 4; the survivor count (T/C endpoint: median survival time, dose: 8.0 mg/kg/injection, schedule: Q01DX010 (ip), vehicle: other) is 0 of 4; the survivor count (T/C endpoint: median survival time, dose: 8.0 mg/kg/injection, schedule: Q01DX010 (ip), vehicle: steroid suspending solution) is recorded as 0 of 4.
Regarding `O=S(=O)(OCC#CCOS(=O)(=O)c1ccc(Cl)c(Cl)c1)c1ccc(Cl)c(Cl)c1`, the T/C (T/C endpoint: median survival time, dose: 50.0 mg/kg/injection, schedule: Q01DX009 (ip), vehicle: Klucel (hydroxypropylcellulose) (HPC)) is 125 % of control.
On to `CCOC(=O)c1ccccc1OP(=O)(N(C)C)N(C)C`, for which the T/C under setting [2] was 142 % of control.
For the compound `CC(=O)OCCC(CCOC(C)=O)=C1N=C(c2ccccc2)OC1=O`, the T/C runs as follows: (T/C endpoint: median survival time, dose: 130.0 mg/kg/injection, schedule: Q01DX009 (ip), vehicle: saline with Tween-80) 127 % of control; (T/C endpoint: median survival time, dose: 200.0 mg/kg/injection, schedule: Q01DX009 (ip), vehicle: saline with Tween-80) 125 and 136 % of control.
Turning to `Cc1c(Cc2ccccc2)[n+](=O)c2ccccc2n1[O-]`, the T/C under setting [5] is 125 % of control.
Consider `CSCCC1NC(=O)C(/C(C)=N\NC(N)=O)=C1O` (centres undefined), for which the survivor count under setting [1] is listed as 3 of 6.
Turning to `CCC1(O)CC(OC2CC(N(C)C)C(OC3CC4OC5CC(=O)C(C)OC5OC4C(C)O3)C(C)O2)c2c(cc3c(c2O)C(=O)c2c(O)ccc(O)c2C3=O)C1C(=O)OC` (centres undefined), the T/C runs as follows: (T/C endpoint: mean survival time, dose: 0.19 mg/kg/injection, schedule: Q01DX010 (ip), vehicle: saline) 125 % of control; (T/C endpoint: median survival time, dose: 0.75 mg/kg/injection, schedule: Q01DX001 (ip), vehicle: saline, evaluated on day 30) 133 % of control; (T/C endpoint: median survival time, dose: 0.75 mg/kg/injection, schedule: Q01DX001 (ip), vehicle: saline, run until all animals had died) 125 % of control; (T/C endpoint: median survival time, dose: 1.04 mg/kg/injection, schedule: Q04DX003 (ip), vehicle: water) 148 % of control; (T/C endpoint: median survival time, dose: 1.44 mg/kg/injection, schedule: Q04DX003 (ip), vehicle: water) 140 % of control; (T/C endpoint: median survival time, dose: 1.5 mg/kg/injection, schedule: Q01DX001 (ip), vehicle: saline, evaluated on day 30) 133 % of control. Also, the T/C is 135 % of control (T/C endpoint: median survival time, dose: 1.5 mg/kg/injection, schedule: Q01DX001 (ip), vehicle: saline, run until all animals had died); 133 % of control (T/C endpoint: median survival time, dose: 2.5 mg/kg/injection, schedule: Q01DX001 (ip), vehicle: saline); 135 % of control (T/C endpoint: median survival time, dose: 2.88 mg/kg/injection, schedule: Q04DX003 (ip), vehicle: water). For the same compound, the survivor count (T/C endpoint: mean survival time, dose: 3.0 mg/kg/injection, schedule: Q01DX010 (ip), vehicle: saline) is recorded as 6 of 6; the survivor count (T/C endpoint: mean survival time, dose: 6.0 mg/kg/injection, schedule: Q01DX010 (ip), vehicle: saline) is 0 of 6; the survivor count (T/C endpoint: mean survival time, dose: 12.0 mg/kg/injection, schedule: Q01DX010 (ip), vehicle: saline) is reported as 0 of 6; the survivor count (T/C endpoint: median survival time, dose: 3.6 mg/kg/injection, schedule: Q04DX003 (ip), vehicle: water) was 8 of 8; the survivor count (T/C endpoint: median survival time, dose: 4.0 mg/kg/injection, schedule: Q04DX003 (ip), vehicle: water) is given as 8 of 8; the survivor count (T/C endpoint: median survival time, dose: 4.8 mg/kg/injection, schedule: Q04DX003 (ip), vehicle: water) is on record as 7 of 8. Also, the survivor count (T/C endpoint: median survival time, dose: 6.0 mg/kg/injection, schedule: Q04DX003 (ip), vehicle: water) is on record as 1 of 8.
Consider `O=C(Nc1ccc(NC(=O)c2ccc(C3=NCCCN3)cc2)cc1)Nc1ccc(C2=NCCCN2)cc1`, for which the survivor count (T/C endpoint: median survival time, dose: 20.0 mg/kg/injection, schedule: Q04DX003 (ip), vehicle: saline with Tween-80) was 3 of 6.
For the compound `C=CC(=O)c1c(O)cc(O)c2c1C(C)C(=O)O2` (centres undefined), the survivor count (T/C endpoint: median survival time, dose: 150.0 mg/kg/injection, schedule: Q01DX009 (ip), vehicle: Klucel (hydroxypropylcellulose) (HPC)) is 2 of 6 and the survivor count (T/C endpoint: median survival time, dose: 300.0 mg/kg/injection, schedule: Q01DX009 (ip), vehicle: Klucel (hydroxypropylcellulose) (HPC)) is on record as 0 of 6.
`CCCCCCNP(=O)(N1CC1)N1CC1`: the survivor count under setting [7] is listed as 5 of 6, the survivor count under setting [3] is 0 of 6 and the survivor count under setting [4] was 0 of 6.
As to `CC(C)=NNS(=O)(=O)c1ccc(C)cc1`, under setting [5], the survivor count was 3 of 6.
Regarding `N#Cc1ccc(C(=O)CC(O)(C(F)(F)F)C(F)(F)F)cc1`, the T/C under setting [7] is 130 % of control.
`O=C1C=C(Nc2ccc(F)cc2)C(Nc2ccc(F)cc2)=CC1=O`: the survivor count (T/C endpoint: median survival time, dose: 175.0 mg/kg/injection, schedule: Q01DX009 (ip), vehicle: saline with Tween-80) is recorded as 7 of 7.
